Some of the results follow.
Assays:
Assay in all cases: glycan array binding signal (z-score within array); higher = stronger binding
Conditions in all cases: glycan notation: IUPAC condensed, linker removed
[1] = molecular target: Gal(b1-3)[Fuc(a1-4)]GlcNAc(b1-3)Gal(b1-3)[Fuc(a1-4)]GlcNAc
Summary of the method: (§1)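 Glycan array binding is given as a within-array Z-score, which can be read as non-binding when negative. The arrays, 3228 of them, came from the Consortium for Functional Glycomics database and were retained only where the protein sequence was available. Z-scores were averaged across arrays of the same protein sequence at different concentrations or buffers and across linkers.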

[2] = molecular target: Gal(b1-3)[Fuc(a1-4)]GlcNAc(b1-3)Gal(b1-4)GlcNAc
Summary of the method: as §1

[3] = molecular target: Gal(b1-3)[Fuc(a1-4)]GlcNAc(b1-3)Gal(b1-4)[Fuc(a1-3)]GlcNAc
Summary of the method: as §1

[4] = molecular target: Gal(b1-3)[GlcNAc(b1-6)]GalNAc
Summary of the method: as §1

[5] = molecular target: Gal(b1-3)[Neu5Ac(a2-6)]GalNAc
Summary of the method: as §1

[6] = molecular target: Gal(b1-3)[Neu5Ac(a2-6)]GlcNAc(b1-6)Gal(b1-4)Glc
Summary of the method: as §1

[7] = molecular target: Gal(b1-3)[Neu5Ac(b2-6)]GalNAc
Summary of the method: as §1

[8] = molecular target: Gal(b1-4)GalNAc(a1-3)[Fuc(a1-2)]Gal(b1-4)GlcNAc
Summary of the method: as §1

[9] = molecular target: Gal(b1-4)GalNAc(b1-3)[Fuc(a1-2)]Gal(b1-4)GlcNAc
Summary of the method: as §1

[10] = molecular target: Gal(b1-4)Glc
Summary of the method: as §1

[11] = molecular target: Gal(b1-4)Glc6S
Summary of the method: as §1

[12] = molecular target: Gal(b1-4)GlcNAc
Summary of the method: as §1

[13] = molecular target: Gal(b1-4)GlcNAc(a1-6)Gal(b1-4)GlcNAc
Summary of the method: as §1

[14] = molecular target: Gal(b1-4)GlcNAc(b1-2)Man(a1-3)[Gal(b1-4)GlcNAc(b1-2)Man(a1-6)]Man(b1-4)GlcNAc(b1-4)GlcNAc
Summary of the method: as §1

[15] = molecular target: Gal(b1-4)GlcNAc(b1-3)Gal(b1-3)GlcNAc
Summary of the method: as §1

[16] = molecular target: Gal(b1-4)GlcNAc(b1-3)Gal(b1-4)Glc
Summary of the method: as §1

[17] = molecular target: Gal(b1-4)GlcNAc(b1-3)Gal(b1-4)GlcNAc
Summary of the method: as §1

[18] = molecular target: Gal(b1-4)GlcNAc(b1-3)Gal(b1-4)GlcNAc(b1-3)Gal(b1-4)GlcNAc
Summary of the method: as §1

[19] = molecular target: Gal(b1-4)GlcNAc(b1-3)Gal(b1-4)[Fuc(a1-3)]GlcNAc(b1-3)Gal(b1-4)[Fuc(a1-3)]GlcNAc
Summary of the method: as §1

[20] = molecular target: Gal(b1-4)GlcNAc(b1-3)GalNAc
Summary of the method: as §1

[21] = molecular target: Gal(b1-4)GlcNAc(b1-3)[Gal(b1-4)GlcNAc(b1-6)]Gal(b1-4)GlcNAc
Summary of the method: as §1

[22] = molecular target: Gal(b1-4)GlcNAc(b1-3)[GlcNAc(b1-6)]Gal(b1-4)GlcNAc
Summary of the method: as §1

[23] = molecular target: Gal(b1-4)GlcNAc(b1-6)Gal(b1-4)GlcNAc
Summary of the method: as §1

[24] = molecular target: Gal(b1-4)GlcNAc(b1-6)Gal(b1-4)GlcNAc(b1-6)GalNAc
Summary of the method: as §1

[25] = molecular target: Gal(b1-4)GlcNAc(b1-6)GalNAc
Summary of the method: as §1

[26] = molecular target: Gal(b1-4)GlcNAc(b1-6)[Gal(b1-3)]GalNAc
Summary of the method: as §1

[27] = molecular target: Gal3S(b1-3)GalNAc
Summary of the method: as §1

[28] = molecular target: Gal3S(b1-3)GlcNAc
Summary of the method: as §1

[29] = molecular target: Gal3S(b1-3)[Fuc(a1-4)]GlcNAc
Summary of the method: as §1

[30] = molecular target: Gal3S(b1-4)Glc
Summary of the method: as §1

[31] = molecular target: Gal3S(b1-4)Glc6S
Summary of the method: as §1

[32] = molecular target: Gal3S(b1-4)GlcNAc
Summary of the method: as §1

[33] = molecular target: Gal3S(b1-4)GlcNAc6S
Summary of the method: as §1

[34] = molecular target: Gal3S(b1-4)[Fuc(a1-3)]Glc
Summary of the method: as §1

[35] = molecular target: Gal3S4S(b1-4)GlcNAc
Summary of the method: as §1

[36] = molecular target: Gal3S6S(b1-4)GlcNAc
Summary of the method: as §1

[37] = molecular target: Gal3S6S(b1-4)GlcNAc6S
Summary of the method: as §1

[38] = molecular target: Gal4S(b1-4)GlcNAc
Summary of the method: as §1

[39] = molecular target: Gal4S6S(b1-4)GlcNAc
Summary of the method: as §1

[40] = molecular target: Gal6S(b1-4)Glc
Summary of the method: as §1

[41] = molecular target: Gal6S(b1-4)Glc6S
Summary of the method: as §1

[42] = molecular target: Gal6S(b1-4)GlcNAc
Summary of the method: as §1

[43] = molecular target: Gal6S(b1-4)GlcNAc6S
Summary of the method: as §1

[44] = molecular target: GalNAc(a1-3)Gal
Summary of the method: as §1

[45] = molecular target: GalNAc(a1-3)GalNAc
Summary of the method: as §1

[46] = molecular target: GalNAc(b1-3)Gal
Summary of the method: as §1

[47] = molecular target: GalNAc(b1-3)Gal(a1-4)Gal(b1-4)GlcNAc
Summary of the method: as §1

[48] = molecular target: GalNAc(b1-3)GalNAc
Summary of the method: as §1

[49] = molecular target: GalNAc(b1-4)GlcNAc
Summary of the method: as §1

[50] = molecular target: Glc(a1-4)Glc
Summary of the method: as §1

[51] = molecular target: Glc(a1-6)Glc(a1-6)Glc
Summary of the method: as §1

[52] = molecular target: Glc(b1-4)Glc
Summary of the method: as §1

[53] = molecular target: Glc(b1-6)Glc
Summary of the method: as §1

[54] = molecular target: GlcA(b1-3)Gal
Summary of the method: as §1

[55] = molecular target: GlcA(b1-3)GlcNAc
Summary of the method: as §1

[56] = molecular target: GlcA(b1-6)Gal
Summary of the method: as §1

[57] = molecular target: GlcNAc(a1-3)Gal(b1-4)GlcNAc
Summary of the method: as §1

[58] = molecular target: GlcNAc(a1-6)Gal(b1-4)GlcNAc
Summary of the method: as §1

[59] = molecular target: GlcNAc(b1-2)Gal(b1-3)GalNAc
Summary of the method: as §1

[60] = molecular target: GlcNAc(b1-2)Man(a1-3)[GlcNAc(b1-2)Man(a1-6)]Man(b1-4)GlcNAc(b1-4)GlcNAc
Summary of the method: as §1

[61] = molecular target: GlcNAc(b1-3)Gal
Summary of the method: as §1

[62] = molecular target: GlcNAc(b1-3)Gal(b1-3)GalNAc
Summary of the method: as §1

[63] = molecular target: GlcNAc(b1-3)Gal(b1-4)Glc
Summary of the method: as §1

[64] = molecular target: GlcNAc(b1-3)Gal(b1-4)GlcNAc
Summary of the method: as §1

[65] = molecular target: GlcNAc(b1-3)Gal(b1-4)GlcNAc(b1-3)Gal(b1-4)GlcNAc
Summary of the method: as §1

[66] = molecular target: GlcNAc(b1-3)GalNAc
Summary of the method: as §1

[67] = molecular target: GlcNAc(b1-3)Man
Summary of the method: as §1

[68] = molecular target: GlcNAc(b1-3)[GlcNAc(b1-4)][GlcNAc(b1-6)]GlcNAc
Summary of the method: as §1

[69] = molecular target: GlcNAc(b1-3)[GlcNAc(b1-6)]Gal(b1-4)GlcNAc
Summary of the method: as §1

[70] = molecular target: GlcNAc(b1-3)[GlcNAc(b1-6)]GalNAc
Summary of the method: as §1

[71] = molecular target: GlcNAc(b1-4)Gal(b1-4)GlcNAc
Summary of the method: as §1

[72] = molecular target: GlcNAc(b1-4)GlcNAc
Summary of the method: as §1

[73] = molecular target: GlcNAc(b1-4)GlcNAc(b1-4)GlcNAc
Summary of the method: as §1

[74] = molecular target: GlcNAc(b1-4)GlcNAc(b1-4)GlcNAc(b1-4)GlcNAc(b1-4)GlcNAc
Summary of the method: as §1

[75] = molecular target: GlcNAc(b1-4)GlcNAc(b1-4)GlcNAc(b1-4)GlcNAc(b1-4)GlcNAc(b1-4)GlcNAc
Summary of the method: as §1

B1: SLLPI (Homo sapiens), Q8IXA5 (protein)
chain: MVSALRGAPLIRVHSSPVSSPSVSGPRRLVSCLSSQSSALSQSGGGSTSAAGIEARSRALRRRWCPAGIMLLALVCLLSCLLPSSEAKLYGRCELARVLHDFGLDGYRGYSLADWVCLAYFTSGFNAAALDYEADGSTNNGIFQINSRRWCSNLTPNVPNVCRMYCSDLLNPNLKDTVICAMKITQEPQGLGYWEAWRHHCQGKDLTEWVDGCDF
- glycan array binding signal (z-score) [1]: -0.295
- glycan array binding signal (z-score) [2]: -0.442
- glycan array binding signal (z-score) [3]: -0.252
- glycan array binding signal (z-score) [4]: -0.531
- glycan array binding signal (z-score) [5]: -0.242
- glycan array binding signal (z-score) [6]: -0.605
- glycan array binding signal (z-score) [7]: -0.357
- glycan array binding signal (z-score) [8]: -0.332
- glycan array binding signal (z-score) [9]: 0.024
- glycan array binding signal (z-score) [10]: -0.156
- glycan array binding signal (z-score) [11]: 0.078
- glycan array binding signal (z-score) [12]: -0.257
- glycan array binding signal (z-score) [13]: -0.567
- glycan array binding signal (z-score) [14]: -0.082
- glycan array binding signal (z-score) [15]: -0.37
- glycan array binding signal (z-score) [16]: -0.355
- glycan array binding signal (z-score) [17]: -0.461
- glycan array binding signal (z-score) [18]: -0.143
- glycan array binding signal (z-score) [19]: -0.327
- glycan array binding signal (z-score) [20]: 0.201
- glycan array binding signal (z-score) [21]: -0.17
- glycan array binding signal (z-score) [22]: 0.438
- glycan array binding signal (z-score) [23]: -0.252
- glycan array binding signal (z-score) [24]: -0.354
- glycan array binding signal (z-score) [25]: -0.215
- glycan array binding signal (z-score) [26]: -0.468
- glycan array binding signal (z-score) [27]: -0.245
- glycan array binding signal (z-score) [28]: -0.338
- glycan array binding signal (z-score) [29]: -0.205
- glycan array binding signal (z-score) [30]: -0.084
- glycan array binding signal (z-score) [31]: 0.272
- glycan array binding signal (z-score) [32]: 0.044
- glycan array binding signal (z-score) [33]: 0.416
- glycan array binding signal (z-score) [34]: 0.403
- glycan array binding signal (z-score) [35]: -0.255
- glycan array binding signal (z-score) [36]: 0.028
- glycan array binding signal (z-score) [37]: 0.334
- glycan array binding signal (z-score) [38]: -0.196
- glycan array binding signal (z-score) [39]: 0.335
- glycan array binding signal (z-score) [40]: 0.112
- glycan array binding signal (z-score) [41]: 1.85
- glycan array binding signal (z-score) [42]: 1.22
- glycan array binding signal (z-score) [43]: 0.081
- glycan array binding signal (z-score) [44]: 1.65
- glycan array binding signal (z-score) [45]: -0.083
- glycan array binding signal (z-score) [46]: 1.36
- glycan array binding signal (z-score) [47]: 0.309
- glycan array binding signal (z-score) [48]: 0.062
- glycan array binding signal (z-score) [49]: 0.15
- glycan array binding signal (z-score) [50]: -0.422
- glycan array binding signal (z-score) [51]: -0.263
- glycan array binding signal (z-score) [52]: -0.191
- glycan array binding signal (z-score) [53]: -0.514
- glycan array binding signal (z-score) [54]: 0.192
- glycan array binding signal (z-score) [55]: 0.16
- glycan array binding signal (z-score) [56]: -0.073
- glycan array binding signal (z-score) [57]: -0.149
- glycan array binding signal (z-score) [58]: 0.288
- glycan array binding signal (z-score) [59]: -0.634
- glycan array binding signal (z-score) [60]: -0.026
- glycan array binding signal (z-score) [61]: 0.2
- glycan array binding signal (z-score) [62]: -0.138
- glycan array binding signal (z-score) [63]: 0.579
- glycan array binding signal (z-score) [64]: -0.119
- glycan array binding signal (z-score) [65]: -0.184
- glycan array binding signal (z-score) [66]: 0.269
- glycan array binding signal (z-score) [67]: -0.462
- glycan array binding signal (z-score) [68]: -0.048
- glycan array binding signal (z-score) [69]: 0.15
- glycan array binding signal (z-score) [70]: -0.443
- glycan array binding signal (z-score) [71]: -0.568
- glycan array binding signal (z-score) [72]: 0.001
- glycan array binding signal (z-score) [73]: 0.949
- glycan array binding signal (z-score) [74]: -0.259
- glycan array binding signal (z-score) [75]: -0.307

— the supplement of paper PMC8728848
